Tested on: thrombin
Experiment: EMSA
Settings: DNA-NPs folded in 1x TAE, 12 mM MgCl2, incubated with thrombin at 37 C for 1.5 h, agarose gel with ethidium bromide, 100 V, binding buffer not otherwise stated, commercial protein, folded or branched DNA

| Sequence | binding result (two- or threefold thrombin excess) | binding result (2x molar excess thrombin) |
| --- | --- | --- |
| GGACGCTATCCAGTCTAAACATTTTACTATTACCCCCTCTGGCAAAACTTCTTTTGCAAAAGCCTCTCGCTATTTTGGTTTTTATCGTCGTCTGGTAAACGAGGGTTATGATAGTGTTGCTCTTACTATGCCTCGTAATTCCTTTTGGCGTTATGTATCTGCATTAGTTGAATGTGGTATTCCTAAATCTCAACTGATGAATCTTTCTACCTGTAATAATGTTGTTCCGTTAGTTCGTTTTATTAACGTAGATTTTTCGATGGTTGGTGTGGTTGGTGGAGCGCCGTCCGGATCGTTTTCTTCCCAACGTCCTGACTGGTATAATGAGCCAGTTCTTAATTCGAAGGTTGGTGTGGTTGGCCGGACGCGCTGCCATTCGTTAATCGCATAAGGTAATTCACAATGATTAAAGTTGAAATTAAATTCGTTGGTTGGTGTGGTTGGCCGACGCCCGTGACGAACGTTCCATCTCAAGCCCAATTTACTACTCGTTCTGGTGTTTCTCGTCAGGGCAAGCCTTATTCACTGAATGAGCAGCTTTGTTACGTTGATTTGGGTAATGAATATCCGGTTCTTGTCAAGATTACTCTTGATGAAGGTCAGCCAGCCTATGCGCCTGGTCTGTACACCGTTCATCTGTCCTCTTTC | binds | – |
| GGACGCTATCCAGTCTAAACATTTTACTATTACCCCCTCTGGCAAAACTTCTTTTGCAAAAGCCTCTCGCTATTTTGGTTTTTATCGTCGTCTGGTAAACGAGGGTTATGATAGTGTTGCTCTTACTATGCCTCGTAATTCCTTTTGGCGTTATGTATCTGCATTAGTTGAATGTGGTATTCCTAAATCTCAACTGATGAATCTTTCTACCTGTAATAATGTTGTTCCGTTAGTTCGTTTTATTAACGTAGATTTAGTCCGTGGTAGGGCAGGTTGGGGTGACTTTCTTCCCAACGTCCTGACTGGTATAATGAGCCAGTTCTTAAAATCGCATAAGGTAATTCACAATGATTAAAGTTGAAATTAAACCATCTCAAGCCCAATTTACTACTCGTTCTGGTGTTTCTCGTCAGGGCAAGCCTTATTCACTGAATGAGCAGCTTTGTTACGTTGATTTGGGTAATGAATATCCGGTTCTTGTCAAGATTACTCTTGATGAAGGTCAGCCAGCCTATGCGCCTGGTCTGTACACCGTTCATCTGTCCTCTTTC | – | binds |

Reference: paper PMC10273176
